The text below walks through data of patent US20110263478A1, “SUR1 INHIBITORS FOR THERAPY” (priority 2008, published 2011).

Chains of the proteins cited; added tags and fusions are not shown.
UniProt Q09429: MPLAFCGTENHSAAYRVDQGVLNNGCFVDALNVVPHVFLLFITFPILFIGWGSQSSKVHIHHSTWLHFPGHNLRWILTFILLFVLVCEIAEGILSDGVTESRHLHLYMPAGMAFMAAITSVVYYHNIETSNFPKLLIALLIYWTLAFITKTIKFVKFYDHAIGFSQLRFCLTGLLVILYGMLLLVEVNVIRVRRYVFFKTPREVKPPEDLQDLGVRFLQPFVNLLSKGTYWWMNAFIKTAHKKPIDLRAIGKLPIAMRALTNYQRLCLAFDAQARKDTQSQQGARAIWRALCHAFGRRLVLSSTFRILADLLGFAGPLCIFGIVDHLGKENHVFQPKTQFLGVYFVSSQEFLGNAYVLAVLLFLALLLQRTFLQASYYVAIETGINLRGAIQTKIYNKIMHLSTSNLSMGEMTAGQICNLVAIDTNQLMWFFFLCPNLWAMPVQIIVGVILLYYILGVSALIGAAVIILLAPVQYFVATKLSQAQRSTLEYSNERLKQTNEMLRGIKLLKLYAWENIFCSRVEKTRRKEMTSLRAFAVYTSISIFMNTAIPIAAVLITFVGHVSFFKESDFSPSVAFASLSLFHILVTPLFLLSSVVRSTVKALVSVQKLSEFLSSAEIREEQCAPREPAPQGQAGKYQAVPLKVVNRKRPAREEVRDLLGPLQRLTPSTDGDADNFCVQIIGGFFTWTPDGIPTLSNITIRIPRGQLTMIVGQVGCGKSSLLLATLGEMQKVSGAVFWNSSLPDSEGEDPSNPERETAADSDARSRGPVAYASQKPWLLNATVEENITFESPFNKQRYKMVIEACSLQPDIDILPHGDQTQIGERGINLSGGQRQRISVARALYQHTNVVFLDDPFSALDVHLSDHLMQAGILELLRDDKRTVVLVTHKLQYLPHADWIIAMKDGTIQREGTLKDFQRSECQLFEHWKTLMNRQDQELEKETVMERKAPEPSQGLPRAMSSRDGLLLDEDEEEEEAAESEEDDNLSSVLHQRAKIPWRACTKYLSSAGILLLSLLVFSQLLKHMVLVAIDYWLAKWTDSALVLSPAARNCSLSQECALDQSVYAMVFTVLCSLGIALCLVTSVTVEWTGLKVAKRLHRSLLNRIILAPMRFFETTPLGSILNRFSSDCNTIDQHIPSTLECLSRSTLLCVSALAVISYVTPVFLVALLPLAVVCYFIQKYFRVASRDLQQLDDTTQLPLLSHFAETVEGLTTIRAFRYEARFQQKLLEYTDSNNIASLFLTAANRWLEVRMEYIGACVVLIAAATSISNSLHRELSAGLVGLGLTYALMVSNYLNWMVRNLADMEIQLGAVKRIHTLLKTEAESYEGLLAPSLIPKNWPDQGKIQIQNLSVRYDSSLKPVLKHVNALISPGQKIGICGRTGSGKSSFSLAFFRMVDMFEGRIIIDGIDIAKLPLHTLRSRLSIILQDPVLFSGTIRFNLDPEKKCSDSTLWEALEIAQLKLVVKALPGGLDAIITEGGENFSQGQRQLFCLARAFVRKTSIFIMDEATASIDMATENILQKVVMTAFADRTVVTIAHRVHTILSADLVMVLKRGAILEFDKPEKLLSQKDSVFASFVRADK
UniProt Q9ESQ5: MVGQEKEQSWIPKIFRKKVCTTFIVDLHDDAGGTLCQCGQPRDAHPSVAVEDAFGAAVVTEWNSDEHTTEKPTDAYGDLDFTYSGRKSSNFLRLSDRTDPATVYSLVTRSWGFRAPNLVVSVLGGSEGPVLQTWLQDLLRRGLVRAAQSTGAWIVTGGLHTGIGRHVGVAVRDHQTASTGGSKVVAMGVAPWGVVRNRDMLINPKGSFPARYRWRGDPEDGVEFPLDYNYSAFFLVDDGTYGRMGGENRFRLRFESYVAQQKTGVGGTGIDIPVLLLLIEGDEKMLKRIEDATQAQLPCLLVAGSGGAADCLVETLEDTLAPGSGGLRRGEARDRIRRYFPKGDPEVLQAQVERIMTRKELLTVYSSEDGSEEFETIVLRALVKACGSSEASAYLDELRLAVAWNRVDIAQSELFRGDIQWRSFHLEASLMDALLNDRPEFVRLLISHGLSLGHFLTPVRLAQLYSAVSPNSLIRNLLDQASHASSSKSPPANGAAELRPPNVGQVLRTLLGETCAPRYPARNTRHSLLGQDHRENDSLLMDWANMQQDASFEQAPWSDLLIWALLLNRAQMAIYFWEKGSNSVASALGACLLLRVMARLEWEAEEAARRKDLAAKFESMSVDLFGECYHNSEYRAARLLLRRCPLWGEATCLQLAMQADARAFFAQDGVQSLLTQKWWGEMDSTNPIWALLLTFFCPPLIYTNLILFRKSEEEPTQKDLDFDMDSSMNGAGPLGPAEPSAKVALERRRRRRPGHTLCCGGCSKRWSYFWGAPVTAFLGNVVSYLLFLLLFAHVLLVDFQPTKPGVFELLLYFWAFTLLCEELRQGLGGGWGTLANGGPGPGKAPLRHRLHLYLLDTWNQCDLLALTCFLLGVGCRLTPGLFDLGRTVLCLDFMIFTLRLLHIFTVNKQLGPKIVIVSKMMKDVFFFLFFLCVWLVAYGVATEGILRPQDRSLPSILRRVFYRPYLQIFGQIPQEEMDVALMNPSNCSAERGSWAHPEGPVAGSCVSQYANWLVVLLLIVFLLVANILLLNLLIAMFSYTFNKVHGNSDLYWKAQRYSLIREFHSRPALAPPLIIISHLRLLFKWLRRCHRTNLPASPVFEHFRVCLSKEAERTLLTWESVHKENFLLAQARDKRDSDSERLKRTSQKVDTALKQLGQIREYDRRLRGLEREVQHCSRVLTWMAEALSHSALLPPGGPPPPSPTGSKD

Results are given in words; binding and its absence hold for the method and conditions named. In cells and extracts the contact can be indirect. Some results given as binding are weak or reduced against the parent protein; the word gives no strength.

The target of assay [1] is sulfonylurea receptor 1 (SUR1), rat, endogenous in CNS tissue lysate (rat) (UniProt Q09429). The assay can be described thus: co-immunoprecipitation with SUR1 antibody, Western blot for TRPM4, figure legend. (In western blotting, separated proteins are transferred to a membrane and probed.)
For assay [2] the target is unchanged. Description: co-immunoprecipitation from injured tissue lysate with anti-SUR1 antibody, Western blot for TRPM4.

“transient receptor potential melastatin 4 (TRPM4), rat, endogenous in injured tissue lysate (from UniProt Q9ESQ5 1-1208)”: the binding result in assay [1] and in assay [2] was “binds” throughout.
